# PubChem BioAssay AID1159600, NIAID, 2016
# Screen: 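How human macrophage-like cells depend on pathway genes for TLR7/8 agonist response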 (primary screen)
# Cells: human THP-1 TNF reporter clone B5, made macrophage-like with PMA
# Reagent: single siRNA against human genes
# Duration: 4 h ligand stimulation, assayed 48 to 72 h after siRNA transfection
# Conditions: R848 (TLR7/8 agonist) for 4 hours before lysis; dose not given
# Measurement: 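Robust z-score of firefly over renilla TNF promoter signal after 4 h R848, plate median/MAD normalised, relative to negative controls, averaged across replicates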
# Direction: TNF reporter z-score: higher = stronger TNF promoter reporter signal after R848
# Hit rule: 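Active where mean z-score is about 1.5 or more from zero in either direction; depositor grades use cut-offs of 1, 1.5, 2 and 2.5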
# Meaning of the calls: active = strong change in TNF reporter (up or down); inactive = little change
# Here is a random part of 756 deposited reagents. Of all reagents, 134 (18%) are marked active. 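Active includes both reduced and increased reporter signal, though most active siRNAs reduce it; R848 dose unknown.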 Entries without a mark were called inactive. The numbers tell different reagents against one gene apart. Not given: the amount of reagent.
TNF reporter z-score,gene,reagent no.
-1,PIK3R3,1
-0.888,PIK3R3,2
0.647,PIK3R3,3
-1.11,PIK3R3,4
0.309,PIK3R3,5
-2.03 (active),PIK3R3,6
-1.61 (active),EGR1,1
-2.19 (active),EGR1,2
-2.84 (active),EGR1,3
-0.915,EGR1,4
-0.919,EGR1,5
1.54 (active),EGR1,6
-0.505,NFKBIA,1
-0.51,NFKBIA,2
2.12 (active),NFKBIA,3
-1.72 (active),NFKBIA,4
-1.72 (active),NFKBIA,5
-0.364,NFKBIA,6
-2.49 (active),IKBKG,1
-0.145,IKBKG,2
-0.311,IKBKG,3
-1.13,IKBKG,4
2.17 (active),IKBKG,5
0.0946,IKBKG,6
-0.852,MAPK3,1
-1.69 (active),MAPK3,2
-1.33,MAPK3,3
-0.437,MAPK3,4
0.0946,MAPK3,5
-1.34,MAPK3,6
-0.729,DUSP1,1
-0.226,DUSP1,2
1.34,DUSP1,3
0.222,DUSP1,4
-0.891,DUSP1,5
0.955,DUSP1,6
-1.8 (active),OTUD5,1
-0.126,OTUD5,2
-1.23,OTUD5,3
-0.316,OTUD5,4
-0.817,OTUD5,5
1.63 (active),OTUD5,6
-0.234,UBE2N,1
-1.29,UBE2N,2
0.426,UBE2N,3
-0.031,UBE2N,4
-1.52 (active),UBE2N,5
0.9,UBE2N,6
-1.87 (active),MAP3K8,1
-1.28,MAP3K8,2
-1.59 (active),MAP3K8,3
-1.43,MAP3K8,4
-2.71 (active),MAP3K8,5
-0.0437,MAP3K8,6
-0.166,STAT1,1
-0.726,STAT1,2
-1.48,STAT1,3
0.494,STAT1,4
1.27,STAT1,5
0.115,STAT1,6

3 entries already listed, arranged by “TNF reporter z-score”, high to low:
TNF reporter z-score,gene,reagent no.
0.955,DUSP1,6
-0.891,DUSP1,5
-1.8 (active),OTUD5,1
